Results are given in words; binding and its absence hold for the method and conditions named. In cells and extracts the contact can be indirect. Some results given as binding are weak or reduced against the parent protein; the word gives no strength. Where a sequence is shown, tags or fusion partners need not be part of it.

Chains of the proteins cited; added tags and fusions are not shown.
UniProt Q91VJ4: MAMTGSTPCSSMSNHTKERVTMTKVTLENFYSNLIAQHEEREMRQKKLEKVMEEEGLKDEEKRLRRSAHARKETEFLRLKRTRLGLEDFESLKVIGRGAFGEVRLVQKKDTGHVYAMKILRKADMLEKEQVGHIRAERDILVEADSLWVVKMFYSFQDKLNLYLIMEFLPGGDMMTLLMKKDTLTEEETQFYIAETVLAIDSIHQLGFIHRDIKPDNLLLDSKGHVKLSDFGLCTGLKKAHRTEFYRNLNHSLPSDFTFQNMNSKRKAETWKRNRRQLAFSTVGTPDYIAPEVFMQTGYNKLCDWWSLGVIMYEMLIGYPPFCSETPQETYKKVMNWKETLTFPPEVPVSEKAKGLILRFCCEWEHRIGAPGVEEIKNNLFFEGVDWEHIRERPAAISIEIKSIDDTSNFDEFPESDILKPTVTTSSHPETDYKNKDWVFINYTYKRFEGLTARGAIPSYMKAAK

For one experiment, the target named is T1, FLAG-MerTK (mouse) (UniProt Q60805).
T1 sequence: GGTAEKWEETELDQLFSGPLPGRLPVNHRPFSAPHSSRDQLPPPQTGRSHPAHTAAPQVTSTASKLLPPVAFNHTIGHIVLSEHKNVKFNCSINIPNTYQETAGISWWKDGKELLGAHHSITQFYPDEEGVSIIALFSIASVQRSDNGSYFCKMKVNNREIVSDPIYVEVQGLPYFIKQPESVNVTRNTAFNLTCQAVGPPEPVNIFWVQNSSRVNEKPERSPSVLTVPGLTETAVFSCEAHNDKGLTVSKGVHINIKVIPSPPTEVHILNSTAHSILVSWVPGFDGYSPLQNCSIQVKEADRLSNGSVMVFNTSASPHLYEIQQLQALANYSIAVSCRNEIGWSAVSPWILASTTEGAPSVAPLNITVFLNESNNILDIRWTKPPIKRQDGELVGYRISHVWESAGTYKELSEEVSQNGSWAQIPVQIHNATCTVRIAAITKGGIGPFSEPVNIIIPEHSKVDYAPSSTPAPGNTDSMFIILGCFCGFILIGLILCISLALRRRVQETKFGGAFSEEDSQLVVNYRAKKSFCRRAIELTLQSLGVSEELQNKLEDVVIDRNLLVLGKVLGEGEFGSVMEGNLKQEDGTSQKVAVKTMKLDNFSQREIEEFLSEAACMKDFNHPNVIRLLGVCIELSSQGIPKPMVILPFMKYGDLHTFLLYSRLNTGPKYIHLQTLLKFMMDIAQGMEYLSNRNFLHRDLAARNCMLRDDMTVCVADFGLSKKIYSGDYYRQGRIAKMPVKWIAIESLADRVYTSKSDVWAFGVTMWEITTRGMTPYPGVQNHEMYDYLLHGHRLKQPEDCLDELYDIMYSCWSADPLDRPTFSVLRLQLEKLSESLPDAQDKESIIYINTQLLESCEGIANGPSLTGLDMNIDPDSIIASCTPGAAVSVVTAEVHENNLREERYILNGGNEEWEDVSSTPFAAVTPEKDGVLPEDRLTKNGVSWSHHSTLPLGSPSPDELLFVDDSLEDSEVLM
The experiment can be described thus: co-IP; HEK293T transfected for 48 h; RIPA lysates incubated with anti-FLAG M2 beads at 4 °C for 2 h, washed three times with RIPA; immunoblot with anti-FLAG, anti-Myc, anti-STK38 or anti-MerTK. (In general: In western blotting, separated proteins are transferred to a membrane and probed.)

The target in the next experiment is FLAG-STK38 (mouse) (UniProt Q91VJ4). The description is as above.

In the case of “Myc-STK38 (from UniProt Q91VJ4 1-465) (enzyme)”, the binding entry with FLAG-MerTK (mouse) is given as “binds”.

B1: Myc-tagged intracellular domain of MerTK (domain or fragment, UniProt Q60805 521-994)
chain: RRRVQETKFGGAFSEEDSQLVVNYRAKKSFCRRAIELTLQSLGVSEELQNKLEDVVIDRNLLVLGKVLGEGEFGSVMEGNLKQEDGTSQKVAVKTMKLDNFSQREIEEFLSEAACMKDFNHPNVIRLLGVCIELSSQGIPKPMVILPFMKYGDLHTFLLYSRLNTGPKYIHLQTLLKFMMDIAQGMEYLSNRNFLHRDLAARNCMLRDDMTVCVADFGLSKKIYSGDYYRQGRIAKMPVKWIAIESLADRVYTSKSDVWAFGVTMWEITTRGMTPYPGVQNHEMYDYLLHGHRLKQPEDCLDELYDIMYSCWSADPLDRPTFSVLRLQLEKLSESLPDAQDKESIIYINTQLLESCEGIANGPSLTGLDMNIDPDSIIASCTPGAAVSVVTAEVHENNLREERYILNGGNEEWEDVSSTPFAAVTPEKDGVLPEDRLTKNGVSWSHHSTLPLGSPSPDELLFVDDSLEDSEVLM
As for B1, in the experiment with FLAG-STK38 (mouse), the binding result is listed as “binds”.

B2: endogenous MerTK (HEK293T) (receptor, UniProt Q12866 21-999)
chain: AITEAREEAKPYPLFPGPFPGSLQTDHTPLLSLPHASGYQPALMFSPTQPGRPHTGNVAIPQVTSVESKPLPPLAFKHTVGHIILSEHKGVKFNCSISVPNIYQDTTISWWKDGKELLGAHHAITQFYPDDEVTAIIASFSITSVQRSDNGSYICKMKINNEEIVSDPIYIEVQGLPHFTKQPESMNVTRNTAFNLTCQAVGPPEPVNIFWVQNSSRVNEQPEKSPSVLTVPGLTEMAVFSCEAHNDKGLTVSKGVQINIKAIPSPPTEVSIRNSTAHSILISWVPGFDGYSPFRNCSIQVKEADPLSNGSVMIFNTSALPHLYQIKQLQALANYSIGVSCMNEIGWSAVSPWILASTTEGAPSVAPLNVTVFLNESSDNVDIRWMKPPTKQQDGELVGYRISHVWQSAGISKELLEEVGQNGSRARISVQVHNATCTVRIAAVTRGGVGPFSDPVKIFIPAHGWVDYAPSSTPAPGNADPVLIIFGCFCGFILIGLILYISLAIRKRVQETKFGNAFTEEDSELVVNYIAKKSFCRRAIELTLHSLGVSEELQNKLEDVVIDRNLLILGKILGEGEFGSVMEGNLKQEDGTSLKVAVKTMKLDNSSQREIEEFLSEAACMKDFSHPNVIRLLGVCIEMSSQGIPKPMVILPFMKYGDLHTYLLYSRLETGPKHIPLQTLLKFMVDIALGMEYLSNRNFLHRDLAARNCMLRDDMTVCVADFGLSKKIYSGDYYRQGRIAKMPVKWIAIESLADRVYTSKSDVWAFGVTMWEIATRGMTPYPGVQNHEMYDYLLHGHRLKQPEDCLDELYEIMYSCWRTDPLDRPTFSVLRLQLEKLLESLPDVRNQADVIYVNTQLLESSEGLAQGSTLAPLDLNIDPDSIIASCTPRAAISVVTAEVHDSKPHEGRYILNGGSEEWEDLTSAPSAAVTAEKNSVLPGERLVRNGVSWSHSSMLPLGSSLPDELLFADDSSEGSEVLM
As to B2, in the experiment with FLAG-STK38 (mouse), the binding entry was “binds”.

B3: Myc-tagged full length MerTK (receptor, UniProt Q60805 19-994)
chain: T1 sequence
For the molecule B3, the binding entry with FLAG-STK38 (mouse) was “binds”.

The values are drawn from paper PMC12607517.
